Our source for the binding values is publication PMC12745170.

The assay concerns the target Flag-tagged RINT1 C-terminal domain, construct C (human). Put plainly: co-IP; 293T cells transfected with Flag-tagged RINT1 deletion constructs (Full, C, N) for 36 h; lysates immunoprecipitated with anti-Flag resin, immunoblotting. In general terms: Immunoblotting shows a protein as a band on a membrane.

These are yes or no findings as the source states them, for the method shown. In cells and extracts the contact can be indirect. A result given as binding can be weak or reduced; the word gives no strength. Where a sequence is shown, tags or fusion partners need not be part of it.

B1: RNF39 in 293T cell lysate (co-IP with Flag-RINT1 constructs) (protein, UniProt Q9H2S5 1-420)
chain: MWWRDLTRLRLWLKREAIPGEGRKAAKVNAGVGEKGIYTASSRGGPPSARSKAVTVVAEGAASRSWLSMDAPELGPGLVERLEQLATCPLCGGSFEDPVLLACEHSFCRACLARRWGTPPATGTEASPTACPCCGLPCPRRSLRSNVRLAVEVRISRELREKLAEPGARAGRRRGGRIPTMGCLDLPGEDMRKTWRRFEVPTSKSSNSEDDLPEDYPVVKKMLHRLTADLTLDPGTAHRRLLISADRRSVQLAPPGTPAPPDGPKRFDQLPAVLGAQGFGAGRHCWEVETADAASCRDSSGEDADDEESHYAVGAAGESVQRKGCVRLCPAGAVWAVEGRGGRLWALTAPEPTLLGGVEPPPRRIRVDLDWERGRVAFYDGRSLDLLYAFQAPGPLGERIFPLFCTCDPRAPLRIVPAES
Consider B1, for which the binding result is “binds”.
